Measured values reported in the supplement of paper PMC6411743.
± gives the standard deviation of the averaged measurements. This is a selection; strong and weak results do not stand in their true shares. Small differences around the control level are noise.

Sequences of proteins named here, by UniProt entry; tags and fusion partners are left off. A change or cut given only in a name is not applied to a line headed by its entry.
UniProt Q15427: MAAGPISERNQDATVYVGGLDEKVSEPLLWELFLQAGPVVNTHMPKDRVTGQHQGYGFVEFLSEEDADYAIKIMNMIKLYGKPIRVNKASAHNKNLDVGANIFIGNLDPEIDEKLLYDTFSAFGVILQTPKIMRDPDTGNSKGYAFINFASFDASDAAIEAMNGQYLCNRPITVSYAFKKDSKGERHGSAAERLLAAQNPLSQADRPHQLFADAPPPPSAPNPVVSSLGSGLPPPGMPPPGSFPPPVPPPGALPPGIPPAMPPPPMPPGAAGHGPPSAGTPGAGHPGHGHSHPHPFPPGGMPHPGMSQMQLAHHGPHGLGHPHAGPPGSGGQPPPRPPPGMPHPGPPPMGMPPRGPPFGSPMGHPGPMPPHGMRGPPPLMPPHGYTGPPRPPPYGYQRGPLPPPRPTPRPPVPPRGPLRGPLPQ
UniProt Q2NKJ3: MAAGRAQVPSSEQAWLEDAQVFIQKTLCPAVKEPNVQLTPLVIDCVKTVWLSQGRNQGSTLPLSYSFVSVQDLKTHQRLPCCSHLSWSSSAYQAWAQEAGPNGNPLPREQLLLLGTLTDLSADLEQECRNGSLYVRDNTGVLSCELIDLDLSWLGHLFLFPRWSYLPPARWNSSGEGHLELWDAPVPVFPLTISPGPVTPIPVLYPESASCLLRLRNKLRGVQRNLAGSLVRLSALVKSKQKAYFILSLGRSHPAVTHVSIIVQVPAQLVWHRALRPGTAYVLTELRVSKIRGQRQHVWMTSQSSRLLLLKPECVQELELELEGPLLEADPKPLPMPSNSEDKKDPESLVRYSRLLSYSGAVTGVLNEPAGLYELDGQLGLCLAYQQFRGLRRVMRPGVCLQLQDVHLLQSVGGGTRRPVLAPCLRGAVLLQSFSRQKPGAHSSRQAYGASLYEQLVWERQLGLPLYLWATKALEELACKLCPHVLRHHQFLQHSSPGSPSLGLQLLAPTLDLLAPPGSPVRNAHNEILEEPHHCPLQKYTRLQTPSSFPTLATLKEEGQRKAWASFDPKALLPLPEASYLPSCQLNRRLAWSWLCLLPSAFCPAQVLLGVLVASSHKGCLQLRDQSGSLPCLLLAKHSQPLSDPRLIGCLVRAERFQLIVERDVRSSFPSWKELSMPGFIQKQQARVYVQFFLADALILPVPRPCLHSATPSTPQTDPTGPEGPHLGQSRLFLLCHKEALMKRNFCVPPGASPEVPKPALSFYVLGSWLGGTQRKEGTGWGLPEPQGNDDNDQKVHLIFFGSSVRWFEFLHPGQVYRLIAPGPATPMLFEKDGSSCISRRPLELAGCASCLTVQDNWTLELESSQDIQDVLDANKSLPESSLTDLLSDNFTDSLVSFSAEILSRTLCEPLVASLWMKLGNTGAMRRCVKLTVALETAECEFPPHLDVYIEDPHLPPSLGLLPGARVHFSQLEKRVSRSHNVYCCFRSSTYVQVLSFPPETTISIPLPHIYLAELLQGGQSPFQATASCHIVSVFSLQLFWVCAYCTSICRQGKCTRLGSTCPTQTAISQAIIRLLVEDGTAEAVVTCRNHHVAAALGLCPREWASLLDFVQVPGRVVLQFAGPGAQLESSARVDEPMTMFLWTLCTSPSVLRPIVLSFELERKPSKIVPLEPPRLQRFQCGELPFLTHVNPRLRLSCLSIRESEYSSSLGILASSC
UniProt Q15126: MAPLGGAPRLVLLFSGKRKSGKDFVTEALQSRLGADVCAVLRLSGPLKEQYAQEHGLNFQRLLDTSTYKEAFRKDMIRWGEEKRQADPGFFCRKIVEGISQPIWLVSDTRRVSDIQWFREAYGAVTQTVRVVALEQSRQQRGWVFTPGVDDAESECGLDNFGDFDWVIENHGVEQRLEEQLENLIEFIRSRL
UniProt Q4LDG9: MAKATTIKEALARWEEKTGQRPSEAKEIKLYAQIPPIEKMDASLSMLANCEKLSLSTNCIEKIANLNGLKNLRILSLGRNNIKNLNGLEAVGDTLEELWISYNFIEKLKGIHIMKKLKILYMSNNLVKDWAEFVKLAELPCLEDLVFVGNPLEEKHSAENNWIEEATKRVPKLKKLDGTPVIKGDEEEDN
UniProt Q5F1R6: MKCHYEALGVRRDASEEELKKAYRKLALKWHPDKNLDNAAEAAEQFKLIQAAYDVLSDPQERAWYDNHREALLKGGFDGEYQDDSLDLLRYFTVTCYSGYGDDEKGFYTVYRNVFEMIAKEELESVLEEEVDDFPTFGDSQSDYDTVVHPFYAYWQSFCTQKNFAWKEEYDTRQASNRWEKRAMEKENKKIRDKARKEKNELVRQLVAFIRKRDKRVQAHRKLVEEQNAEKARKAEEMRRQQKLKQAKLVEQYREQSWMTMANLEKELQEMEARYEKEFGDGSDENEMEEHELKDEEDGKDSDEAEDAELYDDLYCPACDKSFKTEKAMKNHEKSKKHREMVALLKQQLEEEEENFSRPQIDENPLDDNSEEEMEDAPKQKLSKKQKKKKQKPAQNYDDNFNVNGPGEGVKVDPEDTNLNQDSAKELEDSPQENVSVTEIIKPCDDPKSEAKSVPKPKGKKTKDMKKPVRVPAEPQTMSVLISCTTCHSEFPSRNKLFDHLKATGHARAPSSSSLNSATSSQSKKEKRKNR
UniProt Q15388, whole entry: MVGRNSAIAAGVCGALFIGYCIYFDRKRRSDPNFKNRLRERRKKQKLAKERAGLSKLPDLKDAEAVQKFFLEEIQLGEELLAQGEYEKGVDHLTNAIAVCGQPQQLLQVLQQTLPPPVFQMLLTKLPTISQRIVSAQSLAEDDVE
UniProt Q16594, whole entry: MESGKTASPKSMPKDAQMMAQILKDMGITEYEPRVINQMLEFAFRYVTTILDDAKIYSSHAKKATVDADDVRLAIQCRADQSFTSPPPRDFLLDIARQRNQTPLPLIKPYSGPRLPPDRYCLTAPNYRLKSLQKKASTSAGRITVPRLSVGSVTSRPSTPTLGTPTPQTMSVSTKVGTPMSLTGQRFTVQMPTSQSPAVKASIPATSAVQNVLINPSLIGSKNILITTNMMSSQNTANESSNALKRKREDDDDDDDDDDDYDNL
UniProt Q15438: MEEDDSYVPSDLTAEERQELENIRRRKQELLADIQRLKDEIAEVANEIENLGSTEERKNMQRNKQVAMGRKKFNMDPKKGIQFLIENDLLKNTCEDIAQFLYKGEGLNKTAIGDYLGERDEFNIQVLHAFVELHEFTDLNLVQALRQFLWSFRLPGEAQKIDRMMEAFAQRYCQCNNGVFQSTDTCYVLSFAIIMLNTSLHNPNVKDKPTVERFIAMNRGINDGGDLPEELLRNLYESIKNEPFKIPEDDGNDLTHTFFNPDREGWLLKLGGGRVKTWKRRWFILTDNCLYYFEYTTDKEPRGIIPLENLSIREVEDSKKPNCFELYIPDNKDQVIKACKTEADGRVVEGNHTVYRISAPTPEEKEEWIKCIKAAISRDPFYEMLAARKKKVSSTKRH
UniProt Q15907: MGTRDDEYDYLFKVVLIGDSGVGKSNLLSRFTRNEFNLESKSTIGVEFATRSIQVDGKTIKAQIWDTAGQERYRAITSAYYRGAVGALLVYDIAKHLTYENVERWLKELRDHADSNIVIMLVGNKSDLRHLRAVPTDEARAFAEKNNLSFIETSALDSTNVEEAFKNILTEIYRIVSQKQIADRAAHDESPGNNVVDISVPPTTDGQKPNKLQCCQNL
UniProt Q4G0N4: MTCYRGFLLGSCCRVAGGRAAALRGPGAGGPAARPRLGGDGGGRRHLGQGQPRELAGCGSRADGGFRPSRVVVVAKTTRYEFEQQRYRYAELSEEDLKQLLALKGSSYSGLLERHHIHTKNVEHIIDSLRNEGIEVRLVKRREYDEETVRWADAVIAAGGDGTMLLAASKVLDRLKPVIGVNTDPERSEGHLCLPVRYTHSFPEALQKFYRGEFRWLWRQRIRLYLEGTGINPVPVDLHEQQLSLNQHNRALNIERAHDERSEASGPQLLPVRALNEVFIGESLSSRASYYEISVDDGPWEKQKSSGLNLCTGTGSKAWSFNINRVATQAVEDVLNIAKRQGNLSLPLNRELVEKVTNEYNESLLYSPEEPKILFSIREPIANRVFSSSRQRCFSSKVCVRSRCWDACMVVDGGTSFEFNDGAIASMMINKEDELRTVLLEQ
UniProt Q5T6V5: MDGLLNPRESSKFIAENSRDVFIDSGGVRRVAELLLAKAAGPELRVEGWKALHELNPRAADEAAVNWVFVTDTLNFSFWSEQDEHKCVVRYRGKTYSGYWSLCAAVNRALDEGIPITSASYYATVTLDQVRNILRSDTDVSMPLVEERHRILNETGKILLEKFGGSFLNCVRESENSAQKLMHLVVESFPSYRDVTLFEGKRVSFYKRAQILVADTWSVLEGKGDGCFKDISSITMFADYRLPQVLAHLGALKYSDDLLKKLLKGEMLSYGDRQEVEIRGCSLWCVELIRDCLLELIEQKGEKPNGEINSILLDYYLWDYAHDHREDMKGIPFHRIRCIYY
UniProt Q15386: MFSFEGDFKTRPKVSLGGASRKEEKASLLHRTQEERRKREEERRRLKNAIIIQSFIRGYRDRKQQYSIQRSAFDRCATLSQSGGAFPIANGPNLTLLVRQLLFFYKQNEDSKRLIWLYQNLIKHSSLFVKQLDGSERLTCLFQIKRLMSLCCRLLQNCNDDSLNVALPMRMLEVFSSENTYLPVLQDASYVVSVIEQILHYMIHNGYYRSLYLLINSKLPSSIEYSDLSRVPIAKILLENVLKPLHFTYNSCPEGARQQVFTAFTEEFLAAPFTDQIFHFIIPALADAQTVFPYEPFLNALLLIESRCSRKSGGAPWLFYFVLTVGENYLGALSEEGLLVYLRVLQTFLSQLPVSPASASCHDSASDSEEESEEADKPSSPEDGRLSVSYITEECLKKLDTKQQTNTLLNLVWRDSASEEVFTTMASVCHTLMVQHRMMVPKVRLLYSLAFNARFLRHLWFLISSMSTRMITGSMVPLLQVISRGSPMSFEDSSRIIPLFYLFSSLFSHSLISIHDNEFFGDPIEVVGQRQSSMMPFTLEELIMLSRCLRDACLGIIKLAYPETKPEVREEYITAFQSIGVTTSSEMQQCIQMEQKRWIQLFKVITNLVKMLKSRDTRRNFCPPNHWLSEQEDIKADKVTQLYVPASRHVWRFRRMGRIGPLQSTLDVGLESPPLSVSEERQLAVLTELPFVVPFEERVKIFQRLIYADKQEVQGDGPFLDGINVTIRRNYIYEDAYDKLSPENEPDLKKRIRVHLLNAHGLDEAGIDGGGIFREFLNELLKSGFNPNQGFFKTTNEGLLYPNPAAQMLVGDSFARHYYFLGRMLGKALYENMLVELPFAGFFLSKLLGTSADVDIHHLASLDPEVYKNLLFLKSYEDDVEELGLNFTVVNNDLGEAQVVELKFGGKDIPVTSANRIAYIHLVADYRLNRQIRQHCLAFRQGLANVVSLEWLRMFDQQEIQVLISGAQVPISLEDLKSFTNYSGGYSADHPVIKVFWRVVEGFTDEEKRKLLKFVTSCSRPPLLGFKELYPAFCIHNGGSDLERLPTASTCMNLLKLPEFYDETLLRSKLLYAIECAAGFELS
UniProt Q5SQI0: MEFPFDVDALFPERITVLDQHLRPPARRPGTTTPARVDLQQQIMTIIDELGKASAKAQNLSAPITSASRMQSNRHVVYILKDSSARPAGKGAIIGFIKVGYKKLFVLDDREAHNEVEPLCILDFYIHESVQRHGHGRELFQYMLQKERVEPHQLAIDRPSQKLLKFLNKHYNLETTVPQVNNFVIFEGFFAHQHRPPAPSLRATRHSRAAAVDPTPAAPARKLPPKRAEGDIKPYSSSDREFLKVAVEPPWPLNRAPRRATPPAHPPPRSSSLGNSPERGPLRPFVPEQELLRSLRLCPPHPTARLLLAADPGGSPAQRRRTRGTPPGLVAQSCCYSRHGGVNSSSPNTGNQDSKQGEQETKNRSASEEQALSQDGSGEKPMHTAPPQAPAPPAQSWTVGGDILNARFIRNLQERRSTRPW
UniProt Q9BVM2: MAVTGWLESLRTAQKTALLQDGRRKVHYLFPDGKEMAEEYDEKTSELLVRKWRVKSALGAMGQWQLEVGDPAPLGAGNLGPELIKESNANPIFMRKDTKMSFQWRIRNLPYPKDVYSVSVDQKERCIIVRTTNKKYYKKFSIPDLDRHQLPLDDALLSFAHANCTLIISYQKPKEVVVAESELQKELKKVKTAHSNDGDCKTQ
UniProt Q15904, whole entry: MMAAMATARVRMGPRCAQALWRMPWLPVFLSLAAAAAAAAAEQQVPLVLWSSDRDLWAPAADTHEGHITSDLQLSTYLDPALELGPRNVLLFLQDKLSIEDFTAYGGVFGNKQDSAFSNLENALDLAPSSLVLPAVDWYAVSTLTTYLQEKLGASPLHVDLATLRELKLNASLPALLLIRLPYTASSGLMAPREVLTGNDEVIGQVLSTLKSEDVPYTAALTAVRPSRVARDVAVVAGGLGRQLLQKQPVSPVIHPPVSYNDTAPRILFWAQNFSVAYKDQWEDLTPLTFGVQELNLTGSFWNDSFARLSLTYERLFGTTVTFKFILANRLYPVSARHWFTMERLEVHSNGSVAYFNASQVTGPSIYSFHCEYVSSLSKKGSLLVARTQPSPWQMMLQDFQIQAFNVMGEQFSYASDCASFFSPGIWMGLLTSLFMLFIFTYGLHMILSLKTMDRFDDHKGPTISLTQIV

Compound: Nc1ncnc2c1ncn2[C@@H]1O[C@H](COP(=O)(O)OP(=O)(O)NP(=O)(O)O)[C@@H](O)[C@H]1O [adenylyl imidodiphosphate]
Assay: NP40-soluble protein abundance relative to vehicle (solubility fold change) (ratio); higher = more soluble protein in presence of AMP-PNP
Procedure, shortened: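 Each value is a fold change relative to the detergent-processed vehicle, calculated per replicate from vsn-normalised intensities. Jurkat crude lysate received eight concentrations (0.1 to 10 mM) for 10 min at room temperature and 3 min at 37 °C, then was solubilised in 0.8% NP40 with benzonase (60 min, 4 °C). The ultracentrifuged supernatant was TMT-labelled and run by LC-MS/MS in three independent experiments.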

Target	NP40-soluble protein abundance (concentration: 0.1mM)	NP40-soluble protein abundance (concentration: 0.5mM)
NONO (UniProt Q15233)	0.995 ± 0.038	1.06 ± 0.035
UBE2S (UniProt Q16763)	1.04 ± 0.034	1.03 ± 0.011
UniProt Q4G148 and related entries	1 ± 0.023	1.01 ± 0.025
Q5JVZ5 and related entries (UniProt Q96JJ3)	0.945 ± 0.034	0.925 ± 0.061
UniProt Q5FWF5	0.9726 ± 0.0029	0.9922 ± 0.0083
SF3B4 (UniProt Q15427)	1.03 ± 0.057	0.994 ± 0.028
UniProt Q53GL0	0.999 ± 0.041	1.03 ± 0.059
UniProt Q1ED39	0.974 ± 0.031	1.01 ± 0.055
UniProt Q5T0F9-2	1.01 ± 0.049	1.03 ± 0.035
UniProt Q15796 and related entries	1 ± 0.022	1.05 ± 0.037
UniProt Q4VC05 and related entries	1.03 ± 0.03	1.04 ± 0.049
ADRM1 (UniProt Q16186)	0.992 ± 0.053	0.965 ± 0.056
UniProt Q15390 and related entries	0.999 ± 0.022	0.983 ± 0.034
UniProt Q4J6C6 and related entries	0.99 ± 0.029	0.972 ± 0.053
CTC1 (UniProt Q2NKJ3)	0.9869 ± 0.0034	0.9671 ± 0.0021
Q5TCJ5 and related entries (UniProt Q9H3S1)	0.984 ± 0.024	0.981 ± 0.024
C19orf54 (UniProt Q5BKX5)	1.02 ± 0.043	0.992 ± 0.068
PTGES3 (UniProt Q15185)	1 ± 0.051	1.05 ± 0.094
FAM102B (UniProt Q5T8I3)	0.977 ± 0.054	1.02 ± 0.066
UniProt Q58WW2 and related entries	0.998 ± 0.011	0.989 ± 0.015
CRTC2 (UniProt Q53ET0)	0.999 ± 0.028	0.991 ± 0.0037
UniProt Q15906 and related entries	1 ± 0.048	1.01 ± 0.048
TST (UniProt Q16762)	1 ± 0.017	1.01 ± 0.032
PMVK (UniProt Q15126)	0.999 ± 0.022	0.988 ± 0.036

Target	NP40-soluble protein abundance (concentration: 0.1mM)	NP40-soluble protein abundance (concentration: 0.5mM)
UniProt Q5T3I0 and related entries	1.07 ± 0.023	1.08 ± 0.053
UniProt Q5T5Y3 and related entries	0.994 ± 0.04	0.9891 ± 0.0023
UniProt Q5JWR5 and related entries	0.9985 ± 0.0049	1.01 ± 0.027
UniProt Q15910 and related entries	0.995 ± 0.037	1.01 ± 0.042
BEND3 (UniProt Q5T5X7)	1.01 ± 0.021	0.998 ± 0.041
LYRM7 (UniProt Q5U5X0)	0.981 ± 0.013	1.03 ± 0.068
UniProt Q16698-2|Q16698	1.03 ± 0.032	1.01 ± 0.062
HSP90AB4P (UniProt Q58FF6)	0.969 ± 0.074	1.04 ± 0.065
CCDC6 (UniProt Q16204)	0.977 ± 0.011	1.01 ± 0.051
KLHL22 (UniProt Q53GT1)	1 ± 0.011	1.017 ± 0.0027
UniProt Q15723 and related entries	0.985 ± 0.016	0.98 ± 0.058
UniProt Q5T1M5 and related entries	0.98 ± 0.015	0.993 ± 0.026
PGGHG (UniProt Q32M88)	1.01 ± 0.026	0.998 ± 0.015
TBC1D10B (UniProt Q4KMP7)	1.01 ± 0.074	0.963 ± 0.076
DNAL1 (UniProt Q4LDG9)	0.982 ± 0.04	1.03 ± 0.072
ZC3H13 (UniProt Q5T200)	1 ± 0.019	1.03 ± 0.021
UniProt Q5F1R6 and related entries	1.01 ± 0.017	1.039 ± 0.0078
UniProt Q5TG30	1.07 ± 0.015	0.985 ± 0.043
UniProt Q16864 and related entries	1.01 ± 0.027	1.05 ± 0.054
TOMM20 (UniProt Q15388)	0.991 ± 0.041	1.06 ± 0.13
TAF9 (UniProt Q16594)	0.984 ± 0.023	1.02 ± 0.0083
UniProt Q16539 and related entries	1.04 ± 0.034	1.03 ± 0.063
UniProt Q3B7T1 and related entries	1.01 ± 0.019	0.978 ± 0.045
UniProt Q27J81 and related entries	1.01 ± 0.011	1.03 ± 0.059

Pulled one by one from the entries so far:
Target	NP40-soluble protein abundance (concentration: 0.1mM)	NP40-soluble protein abundance (concentration: 0.5mM)
SF3B4 (UniProt Q15427)	1.03 ± 0.057	0.994 ± 0.028
TAF9 (UniProt Q16594)	0.984 ± 0.023	1.02 ± 0.0083
UniProt Q53GL0	0.999 ± 0.041	1.03 ± 0.059
TBC1D10B (UniProt Q4KMP7)	1.01 ± 0.074	0.963 ± 0.076
UniProt Q3B7T1 and related entries	1.01 ± 0.019	0.978 ± 0.045

Later entries

Target	NP40-soluble protein abundance (concentration: 0.1mM)	NP40-soluble protein abundance (concentration: 0.5mM)
RALBP1 (UniProt Q15311)	0.99 ± 0.033	0.97 ± 0.015
UniProt Q5JRX3 and related entries	0.9983 ± 0.0064	1.006 ± 0.0088
UniProt Q15813 and related entries	1.003 ± 0.0055	1.005 ± 0.0025
Q5T063 and related entries (UniProt Q9NZJ6)	0.9827 ± 0.0086	1.01 ± 0.014
AGK (UniProt Q53H12)	1.02 ± 0.037	0.954 ± 0.071
UniProt Q5JTD0 and related entries	1.01 ± 0.022	1 ± 0.027
TBC1D25 (UniProt Q3MII6)	1.03 ± 0.015	1.01 ± 0.018
Q5STZ8 and related entries (UniProt Q8NE71)	1 ± 0.018	0.994 ± 0.0085
UniProt Q5RI15 and related entries	1.02 ± 0.089	1.09 ± 0.11
MAPKAPK3 (UniProt Q16644)	0.961 ± 0.015	1.01 ± 0.039
UniProt Q5T5C0 and related entries	0.97454 ± 0.0002	1.01 ± 0.033
CAMK4 (UniProt Q16566)	1.02 ± 0.044	1.01 ± 0.034
UBAP2 (UniProt Q5T6F2)	0.9965 ± 0.0052	1.01 ± 0.04
UniProt Q15599 and related entries	1.01 ± 0.028	1.03 ± 0.032
UniProt Q15438 and related entries	0.993 ± 0.039	0.978 ± 0.037
HS1BP3 (UniProt Q53T59)	1 ± 0.028	0.9987 ± 0.0074
UniProt Q16666 and related entries	1 ± 0.022	1.05 ± 0.039
UniProt Q5T440	1.04 ± 0.034	0.992 ± 0.056
NDUFA9 (UniProt Q16795)	1.029 ± 0.0085	0.957 ± 0.12
RAB11B (UniProt Q15907)	1 ± 0.043	0.965 ± 0.065
UniProt Q5T2E6 and related entries	1 ± 0.047	0.996 ± 0.038
MLF2 (UniProt Q15773)	1 ± 0.057	0.947 ± 0.027
Q5TZT0 and related entries (UniProt Q9NSU2)	0.9818 ± 0.0095	0.981 ± 0.013
UniProt Q4G0N4	0.988 ± 0.025	0.964 ± 0.038

Target	NP40-soluble protein abundance (concentration: 0.1mM)	NP40-soluble protein abundance (concentration: 0.5mM)
SKIV2L (UniProt Q15477)	0.82 ± 0.082	0.826 ± 0.068
UniProt Q53HC0 and related entries	0.978 ± 0.013	0.964 ± 0.026
SURF2 (UniProt Q15527)	1.013 ± 0.0084	1.03 ± 0.04
MANEA (UniProt Q5SRI9)	0.988 ± 0.041	1 ± 0.038
UniProt Q3KQU3-4|Q3KQU3	1.09 ± 0.042	1.06 ± 0.041
UniProt Q4ADV7 and related entries	0.959 ± 0.038	0.9731 ± 0.0081
UniProt Q5PSV4 and related entries	1.09 ± 0.021	0.99819 ± 0.00018
NT5DC1 (UniProt Q5TFE4)	1 ± 0.018	1 ± 0.046
TWISTNB (UniProt Q3B726)	0.996 ± 0.076	0.986 ± 0.01
RSU1 (UniProt Q15404)	1 ± 0.014	1.04 ± 0.036
UniProt Q5T4S7 and related entries	1.03 ± 0.021	0.978 ± 0.067
VAMP3 (UniProt Q15836)	1 ± 0.011	1.002 ± 0.0087
UniProt Q16576 and related entries	0.977 ± 0.045	0.928 ± 0.094
Q5QPA5 and related entries (UniProt Q9NVS2)	1.04 ± 0.032	1.03 ± 0.052
ERCC6L (UniProt Q2NKX8)	0.9733 ± 0.0036	0.974 ± 0.027
TRADD (UniProt Q15628)	0.998 ± 0.015	0.9983 ± 0.0074
UniProt Q53H47 and related entries	1.02 ± 0.013	0.993 ± 0.014
DNTTIP2 (UniProt Q5QJE6)	0.989 ± 0.058	1.04 ± 0.043
UniProt Q5JSH3 and related entries	0.9859 ± 0.0088	0.987 ± 0.046
ARL13B (UniProt Q3SXY8)	0.99 ± 0.04	1.01 ± 0.015
UniProt Q15653 and related entries	1.01 ± 0.016	0.986 ± 0.012
UniProt Q5SRE5 and related entries	1 ± 0.014	0.989 ± 0.033
Q5TH30 and related entries (UniProt Q9UGV2)	1.02 ± 0.044	1.01 ± 0.019
CMPK2 (UniProt Q5EBM0)	1.01 ± 0.023	0.987 ± 0.051

Target	NP40-soluble protein abundance (concentration: 0.1mM)	NP40-soluble protein abundance (concentration: 0.5mM)
C9orf64 (UniProt Q5T6V5)	1.05 ± 0.058	0.979 ± 0.074
UBE3C (UniProt Q15386)	1.01 ± 0.036	0.965 ± 0.042
FSCN1 (UniProt Q16658)	0.987 ± 0.039	1 ± 0.056
UniProt Q5M775 and related entries	0.981 ± 0.035	1.01 ± 0.07
GNPTAB (UniProt Q3T906)	1.02 ± 0.029	1.04 ± 0.031
UniProt Q15291 and related entries	1.02 ± 0.047	1.02 ± 0.053
HECTD3 (UniProt Q5T447)	0.993 ± 0.01	0.963 ± 0.052
UniProt Q15121 and related entries	0.994 ± 0.029	1 ± 0.011
UniProt Q5SQI0 and related entries	0.9952 ± 0.0037	0.9995 ± 0.0094
UniProt Q5T3F8 and related entries	1.02 ± 0.1	0.997 ± 0.042
C5orf22 (UniProt Q49AR2)	0.988 ± 0.031	0.98 ± 0.067
PDS5A (UniProt Q29RF7)	0.9941 ± 0.0097	1.002 ± 0.0012
ESCO2 (UniProt Q56NI9)	1.007 ± 0.0084	1.009 ± 0.0088
UniProt Q15370 and related entries	0.997 ± 0.03	1.04 ± 0.055
UniProt Q15397	0.996 ± 0.018	1.02 ± 0.015
LACTB2 (UniProt Q53H82)	0.9831 ± 0.0026	0.9851 ± 0.0047
UniProt Q15555 and related entries	0.991 ± 0.021	1.02 ± 0.065
SLC1A5 (UniProt Q15758)	0.965 ± 0.026	0.938 ± 0.028
Q5TH58 and related entries (UniProt Q9H6K1)	0.988 ± 0.029	1.003 ± 0.0021
Q5JQQ4 and related entries (UniProt Q9BVM2)	1.03 ± 0.039	1.02 ± 0.061
UniProt Q32MZ4 and related entries	0.979 ± 0.021	1.01 ± 0.044
UniProt Q2TBE0 and related entries	1.01 ± 0.035	1.01 ± 0.037
ATP6AP1 (UniProt Q15904)	1 ± 0.014	0.984 ± 0.04
UniProt Q3L8U1 and related entries	1.01 ± 0.053	0.986 ± 0.024
